{"source": "the supplement of paper PMC8728848", "assay_in_all_cases": "glycan array binding signal (z-score within array); higher = stronger binding", "conditions_in_all_cases": "glycan notation: IUPAC condensed, linker removed", "key": {"[1]": {"target": "Gal(b1-4)GlcNAc(b1-3)Gal(b1-4)GlcNAc(b1-3)[Gal(b1-4)GlcNAc(b1-3)Gal(b1-4)GlcNAc(b1-6)]GalNAc", "how_it_was_run": "(§1)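 Columns mapping to the same glycan were averaged after glycan names were converted to IUPAC-condensed notation. The data come from 3228 arrays in the Consortium for Functional Glycomics database, limited to those with an available protein sequence. Binding is reported as a within-array Z-score averaged across arrays of one protein sequence and across linkers.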"}, "[2]": {"target": "Gal(b1-4)GlcNAc(b1-3)Gal(b1-4)GlcNAc(b1-6)[Gal(b1-3)]GalNAc", "how_it_was_run": "as §1"}, "[3]": {"target": "Gal(b1-4)GlcNAc(b1-3)Gal(b1-4)[Fuc(a1-3)]GlcNAc(b1-3)Gal(b1-4)[Fuc(a1-3)]GlcNAc", "how_it_was_run": "as §1"}, "[4]": {"target": "Gal(b1-4)GlcNAc(b1-3)GalNAc", "how_it_was_run": "as §1"}, "[5]": {"target": "Gal(b1-4)GlcNAc(b1-3)[Fuc(a1-3)GlcNAc(b1-6)]Gal(b1-4)Glc", "how_it_was_run": "as §1"}, "[6]": {"target": "Gal(b1-4)GlcNAc(b1-3)[Gal(b1-4)GlcNAc(b1-6)]Gal(b1-4)GlcNAc", "how_it_was_run": "as §1"}, "[7]": {"target": "Gal(b1-4)GlcNAc(b1-3)[GlcNAc(b1-6)]Gal(b1-4)GlcNAc", "how_it_was_run": "as §1"}, "[8]": {"target": "Gal(b1-4)GlcNAc(b1-6)Gal(b1-4)GlcNAc", "how_it_was_run": "as §1"}, "[9]": {"target": "Gal(b1-4)GlcNAc(b1-6)GalNAc", "how_it_was_run": "as §1"}, "[10]": {"target": "Gal(b1-4)GlcNAc(b1-6)[Gal(b1-3)]GalNAc", "how_it_was_run": "as §1"}, "[11]": {"target": "Gal(b1-4)GlcNAc(b1-6)[Gal(b1-4)GlcNAc(b1-3)]GalNAc", "how_it_was_run": "as §1"}, "[12]": {"target": "Gal(b1-4)GlcNAc6P", "how_it_was_run": "as §1"}, "[13]": {"target": "Gal(b1-6)Gal", "how_it_was_run": "as §1"}, "[14]": {"target": "Gal3S(b1-3)GalNAc", "how_it_was_run": "as §1"}, "[15]": {"target": "Gal3S(b1-3)GlcNAc", "how_it_was_run": "as §1"}, "[16]": {"target": "Gal3S(b1-3)[Fuc(a1-4)]GlcNAc", "how_it_was_run": "as §1"}, "[17]": {"target": "Gal3S(b1-4)Glc", "how_it_was_run": "as §1"}, "[18]": {"target": "Gal3S(b1-4)Glc6S", "how_it_was_run": "as §1"}, "[19]": {"target": "Gal3S(b1-4)GlcNAc", "how_it_was_run": "as §1"}, "[20]": {"target": "Gal3S(b1-4)[Fuc(a1-3)]Glc6S", "how_it_was_run": "as §1"}, "[21]": {"target": "Gal3S(b1-4)[Fuc(a1-3)]GlcNAc", "how_it_was_run": "as §1"}, "[22]": {"target": "Gal3S(b1-4)[Fuc(a1-3)]GlcNAc6S", "how_it_was_run": "as §1"}, "[23]": {"target": "Gal3S4S(b1-4)GlcNAc", "how_it_was_run": "as §1"}, "[24]": {"target": "Gal3S6S(b1-4)GlcNAc", "how_it_was_run": "as §1"}, "[25]": {"target": "Gal3S6S(b1-4)GlcNAc6S", "how_it_was_run": "as §1"}, "[26]": {"target": "Gal4S(b1-4)GlcNAc", "how_it_was_run": "as §1"}, "[27]": {"target": "Gal4S6S(b1-4)GlcNAc", "how_it_was_run": "as §1"}, "[28]": {"target": "Gal6P(b1-4)GlcNAc", "how_it_was_run": "as §1"}, "[29]": {"target": "Gal6S(b1-3)GlcNAc", "how_it_was_run": "as §1"}, "[30]": {"target": "Gal6S(b1-3)GlcNAc6S", "how_it_was_run": "as §1"}, "[31]": {"target": "Gal6S(b1-4)Glc", "how_it_was_run": "as §1"}, "[32]": {"target": "Gal6S(b1-4)Glc6S", "how_it_was_run": "as §1"}, "[33]": {"target": "Gal6S(b1-4)GlcNAc", "how_it_was_run": "as §1"}, "[34]": {"target": "Gal6S(b1-4)GlcNAc6S", "how_it_was_run": "as §1"}, "[35]": {"target": "GalNAc(a1-3)Gal", "how_it_was_run": "as §1"}, "[36]": {"target": "GalNAc(a1-3)GalNAc", "how_it_was_run": "as §1"}, "[37]": {"target": "GalNAc(a1-3)GalNAc(b1-3)Gal(a1-4)Gal(b1-4)Glc", "how_it_was_run": "as §1"}}, "note": "The other results are listed elsewhere or left out."}
{"binder": "ERGIC1-EDTA (Homo sapiens), Q969X5 (protein) MKFLVNVALVFMVVYISYIYAAAHMHHHHHHDYDIPTTENLYFQGSEVVNELYVDDPDKDSGGKIDVSLNISLPNLHCELVGLDIQDEMGRHEVGHIDNSMKIPLNNGAGCRFEGQFSINKVPGNFHVSTHSATAQPQNPDMTHVIHKLSFGDTLQVQNIHGAFNALGGADRLTSNPLASHDYILKIVPTVYEDKSGKQRYSYQYTVANKEYVAYSHTGRIIPAIWFRYDLSPITVKYTE", "values": [{"measurement": "glycan array binding signal (z-score)", "setting": "[1]", "result": 0.58}, {"measurement": "glycan array binding signal (z-score)", "setting": "[2]", "result": 0.919}, {"measurement": "glycan array binding signal (z-score)", "setting": "[3]", "result": -0.36}, {"measurement": "glycan array binding signal (z-score)", "setting": "[4]", "result": -0.356}, {"measurement": "glycan array binding signal (z-score)", "setting": "[5]", "result": -1.15}, {"measurement": "glycan array binding signal (z-score)", "setting": "[6]", "result": -0.963}, {"measurement": "glycan array binding signal (z-score)", "setting": "[7]", "result": -0.834}, {"measurement": "glycan array binding signal (z-score)", "setting": "[8]", "result": 0.003}, {"measurement": "glycan array binding signal (z-score)", "setting": "[9]", "result": 0.257}, {"measurement": "glycan array binding signal (z-score)", "setting": "[10]", "result": -0.397}, {"measurement": "glycan array binding signal (z-score)", "setting": "[11]", "result": -0.361}, {"measurement": "glycan array binding signal (z-score)", "setting": "[12]", "result": 0.119}, {"measurement": "glycan array binding signal (z-score)", "setting": "[13]", "result": -0.644}, {"measurement": "glycan array binding signal (z-score)", "setting": "[14]", "result": 1.01}, {"measurement": "glycan array binding signal (z-score)", "setting": "[15]", "result": -0.221}, {"measurement": "glycan array binding signal (z-score)", "setting": "[16]", "result": 1.04}, {"measurement": "glycan array binding signal (z-score)", "setting": "[17]", "result": -0.142}, {"measurement": "glycan array binding signal (z-score)", "setting": "[18]", "result": 0.151}, {"measurement": "glycan array binding signal (z-score)", "setting": "[19]", "result": -0.117}, {"measurement": "glycan array binding signal (z-score)", "setting": "[20]", "result": 0.227}, {"measurement": "glycan array binding signal (z-score)", "setting": "[21]", "result": 0.1}, {"measurement": "glycan array binding signal (z-score)", "setting": "[22]", "result": -0.517}, {"measurement": "glycan array binding signal (z-score)", "setting": "[23]", "result": -0.158}, {"measurement": "glycan array binding signal (z-score)", "setting": "[24]", "result": -0.478}, {"measurement": "glycan array binding signal (z-score)", "setting": "[25]", "result": -0.247}, {"measurement": "glycan array binding signal (z-score)", "setting": "[26]", "result": -0.824}, {"measurement": "glycan array binding signal (z-score)", "setting": "[27]", "result": 0.5}, {"measurement": "glycan array binding signal (z-score)", "setting": "[28]", "result": -0.048}, {"measurement": "glycan array binding signal (z-score)", "setting": "[29]", "result": 0.099}, {"measurement": "glycan array binding signal (z-score)", "setting": "[30]", "result": -0.704}, {"measurement": "glycan array binding signal (z-score)", "setting": "[31]", "result": -0.636}, {"measurement": "glycan array binding signal (z-score)", "setting": "[32]", "result": -1.01}, {"measurement": "glycan array binding signal (z-score)", "setting": "[33]", "result": -0.715}, {"measurement": "glycan array binding signal (z-score)", "setting": "[34]", "result": -0.925}, {"measurement": "glycan array binding signal (z-score)", "setting": "[35]", "result": -0.863}, {"measurement": "glycan array binding signal (z-score)", "setting": "[36]", "result": 0.742}, {"measurement": "glycan array binding signal (z-score)", "setting": "[37]", "result": -0.639}]}
